Results from patent publication US20110020914A1, “METHODS FOR ENHANCING GROWTH OF ORGANISMS IN AN AQUEOUS GROWTH MEDIUM” (NOVUS INTERNATIONAL INC, priority 2009, published 2011).
Some results were stated once for a whole list of compounds, not compound by compound. At least one compound was matched to its structure with a doubt left.

System: Chlorella vulgaris
Assay: Effect of chelated micronutrients on protein content (Coomassie Blue G, 595 nm) of Chlorella vulgaris
Assay type: cell-based
Conditions: typically
Method: To assess the efficacy of chelated micronutrients on the protein content of Chlorella vulgaris, a fresh-water green microalgae, the following experiment was conducted. Chlorella vulgaris microalgae colonies were cultured in algal culture media containing added BIOX-C, BIOX-Z, and BIOX-M as described in Example 3.
Samples from each flask were taken after 2, 7, 12, 15, 21, and 30 days of growth in the flasks and analyzed in triplicate to determine the protein content of the microalgae cells. The protein contents of the microalgal colonies were determined by using a spectrophotometer to measure microalgal cells in which the proteins were marked with a dye. 0.04-mL culture samples were gently mixed with 2 ml of Coomassie Blue G dye in a 4 mL plastic cuvette. Cytoplasmic proteins were then measured by measuring the absorbance of the dyed sample at a wavelength of 595 nm using a […].

| Structure (SMILES) | exposure time before enhancement of cell protein content occurs [days] |
| --- | --- |
| CSCCC(O)C(=O)[O-].CSCCC(O)C(=O)[O-].[Mn+2] (stereo not drawn) [BIOX-M, Mn-HMTBA] | > 12 |
| CSCCC(O)C(=O)[O-].CSCCC(O)C(=O)[O-].[Cu+2] (stereo not drawn) [BIOX-C, Cu-HMTBA] | > 12 |
| CSCCC(O)C(=O)[O-].CSCCC(O)C(=O)[O-].[Zn+2] (stereo not drawn) [BIOX-Z, Zn-HMTBA] | > 12 |
